Experiment [1] deals with T1, FGF-8 (manufactured by R&D) (UniProt P55075).
T1 sequence (looked up): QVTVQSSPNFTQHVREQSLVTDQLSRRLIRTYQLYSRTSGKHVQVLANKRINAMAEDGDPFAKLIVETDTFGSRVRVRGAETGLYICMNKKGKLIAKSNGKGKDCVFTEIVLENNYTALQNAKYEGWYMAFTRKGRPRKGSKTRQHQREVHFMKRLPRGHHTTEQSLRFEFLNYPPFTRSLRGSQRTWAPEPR
Nature of the experiment: BIAcore 2000, FGF-8 on CM-5 (result of item 7 of Example 4 told again).

Experiment [2] addresses T1, FGF-8 (manufactured by R&D). Nature of the experiment: BIAcore 2000, FGF-8 amine-coupled on CM-5, antibody in solution, RU height compared; dissociation hardly observed.
Experiment [3] shares this target. Nature of the experiment: BIAcore 2000, FGF-8 on CM-5 (results of Example 4 told again). (In general: In SPR one partner is held on a chip, and binding of the other changes the refractive index at the surface.)
Experiment [4] addresses T2, FGF-8 protein purified from a culture broth of the mouse breast cancer cell line SC-3 at the time of testosterone stimulation (mouse) (UniProt P37237).
T2 sequence (sugar chains (band of around 30 K dalton against a theoretical 22 K dalton), looked up): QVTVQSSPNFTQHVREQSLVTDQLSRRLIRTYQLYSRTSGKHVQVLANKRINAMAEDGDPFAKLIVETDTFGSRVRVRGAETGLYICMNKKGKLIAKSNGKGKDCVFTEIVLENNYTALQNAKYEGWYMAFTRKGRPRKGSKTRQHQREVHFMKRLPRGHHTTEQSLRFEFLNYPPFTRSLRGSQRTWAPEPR
Put plainly: Western blotting of purified FGF-8 after SDS-PAGE, antibody at 10 ug/ml. Background: In western blotting, separated proteins are transferred to a membrane and probed.

Experiment [5] has as its target T3, C-terminus-biotin labeled compound 1 (an N-terminus peptide of FGF-8) (human).
T3 sequence (peptide, C-terminus biotin label): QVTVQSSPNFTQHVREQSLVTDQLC
Nature of the experiment: BIAcore 2000, biotin FGF-8 peptide on SA chip (result told again).

Experiment [6] has the same target. Put plainly: BIAcore 2000, biotin FGF-8 peptide on SA chip, antibody in solution, RU compared; dissociation hardly observed.
Experiment [7] shares this target. Nature of the experiment: BIAcore 2000, biotin FGF-8 peptide on SA chip, Example 6, RU compared; dissociation hardly observed.

No constants are given. Whether binding was seen depends on the method and setting. Some entries that bind do so weakly or less than the wild type.

B1: anti-FGF-8 CDR-grafted antibody HV0LV6 (YB2/0 cell-derived) (antibody, V domains shown)
VH: QVQLVQSGAEVKKPGASVKVSCKASGYTFTDYYLNWVRQAPGQGLEWMGEIDPGSDSIYYNENLEGRVTITADTSTSTAYMELSSLRSEDTAVYYCARYGYSRYDVRFVYWGQGTLVTVSS
VL: DVVMTQSPLSLPVSLGEPASISCRSSQSLVHSNGRTYLEWYLQKPGQSPKVLIYKVSNRISGVPDRFSGSGSGTDFTLKISRVEAEDVGVYFCFQGSHVPYTFGQGTKVEIK
notes: also called KM8037; FERM BP-8084
Consider B1, for which the binding entry in experiment [1], in experiment [2] and in experiment [3] was “binds” throughout.

B2: anti-FGF-8 monoclonal antibody KM 1334 (antibody, mouse IgG1, V domains shown)
VH: QVQLQQSGAEVARPGASVKLSCKASGYTFTDYYLNWVKQRSGQGLEWIGEIDPGSDSIYYNENLEGRATLTADKSSSTAYMQLNSLTSEDSAVYFCARYGYSRYDVRFVYWGQGTLVTVST
VL: DVLMTQTPLSLPVSLGDQASISCRSSQSLVHSNGRTYLEWYLQKPGQSPKVLIYKVSNRISGVPDRFSGSGSGTDFTLKISRVEAEDLGVYFCFQGSHVPYTFGGGTKLEIK
notes: Mouse IgG1, kappa L chain, purified from ascites; also called anti-FGF-8 mouse antibody KM1334; antibody of hybridoma FERM BP-5451
With B2, the binding result in experiment [4] is “binds”.

B3: anti-FGF-8 CDR-grafted antibody HV0LV4-1/CHO (antibody, V domains shown)
VH: QVQLVQSGAEVKKPGASVKVSCKASGYTFTDYYLNWVRQAPGQGLEWMGEIDPGSDSIYYNENLEGRVTITADTSTSTAYMELSSLRSEDTAVYYCARYGYSRYDVRFVYWGQGTLVTVSS
VL: DVVMTQSPLSLPVTPGEPASISCRSSQSLVHSNGRTYLEWYLQKPGQSPKVLIYKVSNRISGVPDRFSGSGSGTDFTLKISRVEAEDVGVYFCFQGSHVPYTFGQGTKVEIK
B3: the binding entry in experiment [5] and in experiment [6] was “binds” throughout.

B4: anti-FGF-8 CDR-grafted antibody HV0LV2-1/CHO (antibody, V domains shown)
VH: QVQLVQSGAEVKKPGASVKVSCKASGYTFTDYYLNWVRQAPGQGLEWMGEIDPGSDSIYYNENLEGRVTITADTSTSTAYMELSSLRSEDTAVYYCARYGYSRYDVRFVYWGQGTLVTVSS
VL: DIVMTQSPLSLPVTPGEPASISCRSSQSLVHSNGRTYLEWYLQKPGQSPQVLIYKVSNRISGVPDRFSGSGSGTDFTLKISRVEAEDVGVYFCFQGSHVPYTFGQGTKVEIK
Consider B4, for which the binding entry in experiment [5] and in experiment [6] was “binds” in each case.

B5: anti-FGF-8 chimeric antibody KM3334 (antibody, V domains shown)
VH: QVQLQQSGAEVARPGASVKLSCKASGYTFTDYYLNWVKQRSGQGLEWIGEIDPGSDSIYYNENLEGRATLTADKSSSTAYMQLNSLTSEDSAVYFCARYGYSRYDVRFVYWGQGTLVTVST
VL: DVLMTQTPLSLPVSLGDQASISCRSSQSLVHSNGRTYLEWYLQKPGQSPKVLIYKVSNRISGVPDRFSGSGSGTDFTLKISRVEAEDLGVYFCFQGSHVPYTFGGGTKLEIK
Regarding B5, the binding result in experiment [2] is reported as “binds”.

B6: anti-FGF-8 CDR-grafted antibody HV0LV0 (YB2/0 cell-derived) (antibody, V domains shown)
VH: QVQLVQSGAEVKKPGASVKVSCKASGYTFTDYYLNWVRQAPGQGLEWMGEIDPGSDSIYYNENLEGRVTITADTSTSTAYMELSSLRSEDTAVYYCARYGYSRYDVRFVYWGQGTLVTVSS
VL: DIVMTQSPLSLPVTPGEPASISCRSSQSLVHSNGRTYLEWYLQKPGQSPQLLIYKVSNRISGVPDRFSGSGSGTDFTLKISRVEAEDVGVYYCFQGSHVPYTFGQGTKVEIK
With B6, the binding result in experiment [2] is given as “binds”.

B7: anti-FGF-8 CDR-grafted antibody HV6LV6 (YB2/0 cell-derived) (antibody, V domains shown)
VH: QVQLVQSGAEVARPGASVKVSCKASGYTFTDYYLNWVRQRSGQGLEWIGEIDPGSDSIYYNENLEGRVTITADTSTSTAYMELSSLRSEDTAVYFCARYGYSRYDVRFVYWGQGTLVTVSS
VL: DVVMTQSPLSLPVSLGEPASISCRSSQSLVHSNGRTYLEWYLQKPGQSPKVLIYKVSNRISGVPDRFSGSGSGTDFTLKISRVEAEDVGVYFCFQGSHVPYTFGQGTKVEIK
Consider B7, for which, in experiment [2], the binding entry is recorded as “binds”.

B8: anti-FGF-8 CDR-grafted antibody HV0LV3-3/CHO (antibody, V domains shown)
VH: QVQLVQSGAEVKKPGASVKVSCKASGYTFTDYYLNWVRQAPGQGLEWMGEIDPGSDSIYYNENLEGRVTITADTSTSTAYMELSSLRSEDTAVYYCARYGYSRYDVRFVYWGQGTLVTVSS
VL: DIVMTQSPLSLPVSLGEPASISCRSSQSLVHSNGRTYLEWYLQKPGQSPQVLIYKVSNRISGVPDRFSGSGSGTDFTLKISRVEAEDVGVYYCFQGSHVPYTFGQGTKVEIK
B8: the binding entry in experiment [7] is recorded as “binds”.
